Measured values reported in US20140199265A1, “NUTRITIONAL COMPOSITIONS CONTAINING A NEUROLOGIC COMPONENT AND USES THEREOF” (MEAD JOHNSON NUTRITION COMPANY, priority 2013, published 2014).
At least one structure is not confirmed: it was looked up by name or label, or the drawing left a doubt.

Columns and labels:
[1] = tested on: human adipose-derived stem cells (hADSCs); experiment: neurogenesis / neuronal differentiation of hADSCs judged by neuronal morphology under phase contrast microscopy; format: cell-based; settings: 10 μM
Procedure: hADSCs were purchased from Invitrogen, also known as Life Technologies, of Carlsbad, Calif., U.S.A., and were cultured as near confluent monolayers in 100 mm culture plates within a maintenance media consisting of Complete MesenPro RS medium with growth supplement and L-glutamine obtained from Invitrogen®. The process of culturing, passage, and seeding the hADSCs is described below.
The subculture of hADSCs was performed when cell culture reached confluence. […]

[2] = tested on: human neuronal stem cells (hNSCs); experiment: neurogenesis of GFP-expressing hNSCs judged by morphological changes under inverted fluorescent microscopy; format: cell-based; settings: 20 μM
Procedure: Briefly, hNSCs were purchased from Millipore, Bellerica, Mass., U.S.A., with genetic modification to constitutively express green fluorescent protein (“GFP”). The hNSCs were cultured on laminin coated plates as recommended by the manufacturer. Both laminin and DEME/F12 were obtained from Millipore. Laminin was diluted with DMEM/F12 to 20 μg/mL. 10 ml of diluted laminin solution was added to 10 cm tissue culture dish. Then the culture dish was incubated in a 37° C., 5% CO2 incubator overnight. Just before use, the laminin solution was aspirated and rinsed once with sterile DPBS solution. hNSCs were cultured in the ReNcell NSC maintenance medium (Millipore) supplied with 20 ng/mL bFGF and 20 ng/mL EGF in a 37° C., 5% CO2 incubator. Medium was exchanged with fresh medium containing bFGF and EGF every other day thereafter.
After hNSCs reach 80% confluence, hNSCs were ready for the differentiation experiment. Before seeding, a 96-well plate was freshly coated with 20 μg/mL laminin solution followed by a brief DPBS rinse as described above. Culture medium was removed carefully and hNSCs were dissociated within 3 ml Accutase (Millipore) in a 37° C., 5% CO2 incubator for 3 minutes. Then 5 ml of ReNcell NSC maintenance medium (Millipore) supplied with 20 ng/mL bFGF and 20 ng/mL EGF were added. […]

How did the early neurogenesis ([1]; 24 hours after switching to neural differentiation medium, FIG. 5A) turn out when `CC/C=C\C/C=C\C/C=C\C/C=C\C/C=C\C/C=C\CCC(=O)O` [DHA, docosahexaenoic acid, reference compound] was run?
The early neurogenesis was “Early neurogenesis was first observed”.

And the “neuronal morphology compared to negative control” value ([1]; positive control, FIG. 2B)?
Its value is “enhanced neuronal morphology of hADSCs when compared to the negative control”.

What about the effects on neurogenesis [2] of the same compound?
The effects on neurogenesis was “good effects on neurogenesis”.
